{
  "source": "patent US20180161291A1",
  "about": "“EXTENDED RELEASE UREA COMPOSITIONS” (Kato Pharmaceuticals, Inc., priority 2015, published 2018)",
  "origin": "cited, not measured here",
  "conditions": "cited from earlier work",
  "note": "Read-outs that look alike come from different tables or passages of the source.",
  "data": [
    {"smiles": "NC(N)=O", "note": "[urea]", "values": [
      {"measurement": "solubility", "setting": "in chloroform or ether", "result": "practically insoluble"},
      {"measurement": "solubility", "setting": "in water, ethanol, methanol and glycerol", "result": "very soluble"}
    ]}
  ]
}
